In the supplement of paper PMC12823440, “Inhibitors supercharge kinase turnover through native proteolytic circuits” (Nature, 2025):
Where a name gives a salt, the structure may show the parent alone. The list shows a part of the results. The calls rarely recur for the same compound in another form.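 Kinases, fused to nanoluciferase, were expressed in K562 cells; luminescence was measured every 4 h from 2 to 18 h as percent of control (DMSO = 100%, positive control = 0%). A time point is decreased if signal falls significantly (2 sigma). Hits were called by the authors by a rule that is not shown; the count of time points alone does not decide it.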

Amino acid sequences for entries named in this document (tags omitted). A change or cut given only in a name is not applied to a line headed by its entry.
UniProt Q9UQM7, whole entry: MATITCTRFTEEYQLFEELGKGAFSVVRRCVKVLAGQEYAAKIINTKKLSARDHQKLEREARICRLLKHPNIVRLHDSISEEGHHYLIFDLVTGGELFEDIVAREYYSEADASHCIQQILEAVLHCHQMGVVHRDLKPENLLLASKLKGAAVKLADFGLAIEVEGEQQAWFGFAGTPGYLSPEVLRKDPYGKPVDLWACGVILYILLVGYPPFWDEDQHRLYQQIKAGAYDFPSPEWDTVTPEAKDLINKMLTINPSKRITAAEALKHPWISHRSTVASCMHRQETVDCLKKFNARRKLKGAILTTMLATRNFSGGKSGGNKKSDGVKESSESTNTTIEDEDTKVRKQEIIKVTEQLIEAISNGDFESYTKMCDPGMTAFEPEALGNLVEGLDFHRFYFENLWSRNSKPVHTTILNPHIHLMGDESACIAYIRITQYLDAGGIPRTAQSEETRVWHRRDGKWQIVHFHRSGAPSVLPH
UniProt Q13555: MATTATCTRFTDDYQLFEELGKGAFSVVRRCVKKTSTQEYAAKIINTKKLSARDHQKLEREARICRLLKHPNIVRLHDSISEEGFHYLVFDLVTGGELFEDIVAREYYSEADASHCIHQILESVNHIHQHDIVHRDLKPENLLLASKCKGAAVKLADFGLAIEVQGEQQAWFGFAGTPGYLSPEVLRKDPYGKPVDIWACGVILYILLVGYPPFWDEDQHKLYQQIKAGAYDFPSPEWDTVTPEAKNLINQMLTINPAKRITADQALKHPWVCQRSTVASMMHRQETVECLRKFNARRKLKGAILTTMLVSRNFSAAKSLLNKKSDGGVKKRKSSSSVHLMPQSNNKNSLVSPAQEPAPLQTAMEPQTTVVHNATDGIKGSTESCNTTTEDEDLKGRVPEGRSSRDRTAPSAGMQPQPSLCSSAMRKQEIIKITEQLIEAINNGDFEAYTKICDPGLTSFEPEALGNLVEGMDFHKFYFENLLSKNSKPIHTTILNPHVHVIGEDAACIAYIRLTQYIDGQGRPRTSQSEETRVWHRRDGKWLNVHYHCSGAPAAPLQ
UniProt Q15131: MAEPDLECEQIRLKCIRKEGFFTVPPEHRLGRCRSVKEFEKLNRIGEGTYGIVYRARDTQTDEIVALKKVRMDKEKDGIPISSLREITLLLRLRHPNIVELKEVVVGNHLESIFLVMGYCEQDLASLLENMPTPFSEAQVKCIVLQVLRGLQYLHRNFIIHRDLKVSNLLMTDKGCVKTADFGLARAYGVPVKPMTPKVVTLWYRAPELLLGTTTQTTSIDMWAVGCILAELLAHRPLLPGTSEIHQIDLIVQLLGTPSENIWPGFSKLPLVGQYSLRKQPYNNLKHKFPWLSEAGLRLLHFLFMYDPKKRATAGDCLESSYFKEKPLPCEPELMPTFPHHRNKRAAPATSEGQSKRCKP
UniProt Q00526: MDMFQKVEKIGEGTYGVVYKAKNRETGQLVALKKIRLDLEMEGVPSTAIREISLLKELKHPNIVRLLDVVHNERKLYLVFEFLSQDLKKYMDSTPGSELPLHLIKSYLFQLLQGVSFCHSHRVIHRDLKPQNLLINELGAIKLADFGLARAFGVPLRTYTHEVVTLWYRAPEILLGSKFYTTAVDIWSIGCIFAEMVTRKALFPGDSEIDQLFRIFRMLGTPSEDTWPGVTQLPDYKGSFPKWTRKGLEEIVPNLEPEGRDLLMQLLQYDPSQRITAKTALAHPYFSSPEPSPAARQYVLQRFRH
UniProt Q00535, whole entry, looked up: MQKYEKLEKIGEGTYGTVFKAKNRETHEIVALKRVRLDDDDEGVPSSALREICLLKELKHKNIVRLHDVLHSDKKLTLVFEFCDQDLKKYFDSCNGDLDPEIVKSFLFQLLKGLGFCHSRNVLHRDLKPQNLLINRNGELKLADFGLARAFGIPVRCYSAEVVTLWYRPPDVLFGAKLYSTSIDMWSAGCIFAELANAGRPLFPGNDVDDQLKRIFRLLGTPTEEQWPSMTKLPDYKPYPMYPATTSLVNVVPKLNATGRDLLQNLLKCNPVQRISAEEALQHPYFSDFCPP
UniProt Q00534, whole entry: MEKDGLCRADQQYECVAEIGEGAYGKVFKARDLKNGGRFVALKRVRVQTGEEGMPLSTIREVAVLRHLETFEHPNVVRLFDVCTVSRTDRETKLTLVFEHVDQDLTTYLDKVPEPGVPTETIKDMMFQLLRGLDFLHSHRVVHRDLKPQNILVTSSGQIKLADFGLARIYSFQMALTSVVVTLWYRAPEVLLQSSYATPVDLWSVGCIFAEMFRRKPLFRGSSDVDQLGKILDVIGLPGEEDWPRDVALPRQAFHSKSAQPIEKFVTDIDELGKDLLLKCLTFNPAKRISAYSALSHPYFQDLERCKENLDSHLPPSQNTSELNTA
UniProt O96017, whole entry: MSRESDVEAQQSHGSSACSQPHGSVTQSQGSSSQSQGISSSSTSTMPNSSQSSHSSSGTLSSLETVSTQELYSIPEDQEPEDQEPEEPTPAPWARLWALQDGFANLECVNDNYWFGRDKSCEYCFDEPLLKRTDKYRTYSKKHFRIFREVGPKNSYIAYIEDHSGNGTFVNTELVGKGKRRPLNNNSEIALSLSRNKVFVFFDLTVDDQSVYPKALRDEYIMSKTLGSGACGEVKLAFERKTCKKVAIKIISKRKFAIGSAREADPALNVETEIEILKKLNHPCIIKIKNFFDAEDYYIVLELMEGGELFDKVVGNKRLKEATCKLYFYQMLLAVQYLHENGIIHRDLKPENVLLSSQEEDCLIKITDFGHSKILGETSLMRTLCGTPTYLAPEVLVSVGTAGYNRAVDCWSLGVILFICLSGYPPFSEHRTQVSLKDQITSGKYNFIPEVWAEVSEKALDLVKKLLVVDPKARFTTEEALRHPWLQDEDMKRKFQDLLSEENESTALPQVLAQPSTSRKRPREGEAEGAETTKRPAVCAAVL
UniProt P07333, whole entry: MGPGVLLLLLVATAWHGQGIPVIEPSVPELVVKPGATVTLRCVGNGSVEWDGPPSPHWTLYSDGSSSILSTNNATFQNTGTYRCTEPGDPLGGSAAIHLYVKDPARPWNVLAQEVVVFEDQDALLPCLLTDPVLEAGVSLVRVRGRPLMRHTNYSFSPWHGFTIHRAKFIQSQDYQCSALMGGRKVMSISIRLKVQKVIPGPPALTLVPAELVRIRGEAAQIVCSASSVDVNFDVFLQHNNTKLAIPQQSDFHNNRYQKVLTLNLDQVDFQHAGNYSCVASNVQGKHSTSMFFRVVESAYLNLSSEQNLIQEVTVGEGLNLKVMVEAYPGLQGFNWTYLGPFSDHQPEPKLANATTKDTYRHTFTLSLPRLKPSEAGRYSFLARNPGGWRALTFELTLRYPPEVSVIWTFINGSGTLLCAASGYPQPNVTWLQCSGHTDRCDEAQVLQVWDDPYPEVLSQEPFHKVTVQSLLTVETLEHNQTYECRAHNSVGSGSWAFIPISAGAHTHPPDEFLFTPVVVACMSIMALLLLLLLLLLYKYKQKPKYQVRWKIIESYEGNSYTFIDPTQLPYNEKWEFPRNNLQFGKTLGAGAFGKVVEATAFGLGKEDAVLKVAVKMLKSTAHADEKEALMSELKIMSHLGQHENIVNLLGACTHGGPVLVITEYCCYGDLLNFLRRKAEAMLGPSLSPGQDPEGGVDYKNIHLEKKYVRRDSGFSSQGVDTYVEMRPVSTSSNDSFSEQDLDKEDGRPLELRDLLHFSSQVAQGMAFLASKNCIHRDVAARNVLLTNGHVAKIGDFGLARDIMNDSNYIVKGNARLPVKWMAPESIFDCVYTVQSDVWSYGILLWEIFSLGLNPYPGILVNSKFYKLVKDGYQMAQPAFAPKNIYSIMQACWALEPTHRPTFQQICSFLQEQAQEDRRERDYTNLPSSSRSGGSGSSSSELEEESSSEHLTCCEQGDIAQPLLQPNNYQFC
UniProt P41240: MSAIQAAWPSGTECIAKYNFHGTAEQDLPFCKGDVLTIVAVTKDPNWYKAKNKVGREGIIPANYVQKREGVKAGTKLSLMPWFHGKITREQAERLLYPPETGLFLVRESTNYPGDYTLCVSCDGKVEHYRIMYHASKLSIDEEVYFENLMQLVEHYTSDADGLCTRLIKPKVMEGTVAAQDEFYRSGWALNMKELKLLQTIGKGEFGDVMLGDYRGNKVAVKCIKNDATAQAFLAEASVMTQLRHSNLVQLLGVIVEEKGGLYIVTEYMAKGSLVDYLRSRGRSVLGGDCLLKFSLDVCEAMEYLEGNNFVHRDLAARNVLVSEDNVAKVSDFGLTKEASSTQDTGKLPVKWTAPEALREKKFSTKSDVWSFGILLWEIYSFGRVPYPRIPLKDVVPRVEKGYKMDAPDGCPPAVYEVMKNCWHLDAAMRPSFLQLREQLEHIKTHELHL

Experiments:
Assay in all cases: number of time points (of 5) at which kinase-Nluc abundance scored as decreased, DMSO-normalised (count); higher = more persistent destabilization
Settings in all cases: K562; 2-18 h
CAMK2A = CAMK2A (UniProt Q9UQM7)
CAMK2G = CAMK2G (UniProt Q13555)
CDK10 = CDK10 (UniProt Q15131)
CDK2 = CDK2 (UniProt P24941)
CDK3 = CDK3 (UniProt Q00526)
CDK5 = CDK5 (UniProt Q00535)
CDK6 = CDK6 (UniProt Q00534)
CHEK2 = CHEK2 (UniProt O96017)
CSF1R = CSF1R (UniProt P07333)
CSK = CSK (UniProt P41240)

Measured: number of time points

O=C(Nc1cccnc1)c1cc(C(=O)c2c(F)cccc2Br)c[nH]1 (10 µM)
0: all assays above

O=C(O)CCc1ccc(O)c(O)c1 [Dihydrocaffeic acid] (10 µM)
0: all assays above

CC/C=C\C/C=C\C/C=C\CCCCCCCC(=O)O [α-Linolenic acid] (10 µM)
0: all assays above

O=C(NC(NC(=S)Nc1ccc(F)c([N+](=O)[O-])c1)C(Cl)(Cl)Cl)C(c1ccccc1)c1ccccc1 (stereo not given) (10 µM)
0: all assays above

COCCOc1cnc(Sc2cc(C)c(-c3csc(NC(=O)c4ccncc4)n3)c(C)c2)cn1 [T-1101 (tosylate)] (2.5 µM)
0: all assays above

Cc1csc(-c2nnc(Nc3ccc(Oc4ncccc4-c4ccnc(N)n4)cc3)c3ccccc23)c1 (2.5 µM)
0: all assays above

CS(=O)(=O)c1ccc(-c2noc(C(F)(F)F)c2-c2ccccc2)cc1 (10 µM)
0: all assays above

CC[C@@]1(c2ccccc2)C2=C(CC(C)(C)CC2=O)Nc2[nH]ncc21 (10 µM)
0: all assays above

O=C(/C=C/c1ccc(O)c(O)c1)c1ccc(O[C@@H]2O[C@H](CO)[C@@H](O)[C@H](O)[C@H]2O)c(O)c1O [Marein] (10 µM)
0: all assays above

COc1ccc(C2CC(c3ccccc3)=NN2c2ccc(S(N)(=O)=O)cc2)cc1 (stereo not given) (10 µM)
0: all assays above

O=C1c2ccc(Nc3ccc(F)cc3F)cc2CCc2ccc(OC[C@H](O)CO)cc21 [Skepinone-L] (2.5 µM)
0: all assays above

O=C(O)c1cc(O)ccc1O [2,5-Dihydroxybenzoic acid] (10 µM)
0: all assays above

CC1CN(C(=O)Nc2ccc(Cl)c(Cl)c2)C(=Nc2ccc(F)cc2)S1 (stereo not given) (10 µM)
0: all assays above

Cc1ccc(Nc2cc(-c3cccc(N4C(=O)c5ccccc5C4=O)c3)ncn2)cc1NS(C)(=O)=O (10 µM)
1: CDK3
0: all other assays above

Cn1c(=O)c(F)c(Nc2ccc(I)cc2F)c2c(=O)n(C[C@@H](O)CO)cnc21 (10 µM)
1: CAMK2G
0: all other assays above

COc1ccc(C(=O)Nc2sc3c(c2C(N)=O)CCCC3)cc1OC (10 µM)
0: all assays above

Cn1cc(-c2ccc(CNc3cc(-c4cnc5cc(OCCCN6CCCC6)ccn45)ncn3)cc2)cn1 (10 µM)
0: all assays above

Cc1cc(NC(=O)c2cccc(NC(=O)/C=C/CN(C)C)c2)ccc1Nc1nccc(-c2cccnc2)n1 (10 µM)
0: all assays above

COc1ccc(C(=C2C(=O)Nc3ccccc32)c2ccc(OC)cc2)cc1 (10 µM)
0: all assays above

Cn1nccc1Nc1nccc(-c2cc3c(s2)C(C)(C)N(CCN2CCOCC2)C3=O)n1 (10 µM)
0: all assays above

Cc1c(NC(=O)OC[C@@H]2COCCN2)cn2ncnc(Nc3ccc4c(cnn4Cc4cccc(F)c4)c3)c12 (10 µM)
0: all assays above

O=C(NCCCNc1nc(Nc2cccc(NC(=O)N3CCCC3)c2)ncc1I)c1cccs1 (2.5 µM)
0: all assays above

Ordered by heavy-atom count (smallest number first): some entries from above
CS(=O)(=O)c1ccc(-c2noc(C(F)(F)F)c2-c2ccccc2)cc1 (10 µM)
0: all assays above

Cn1nccc1Nc1nccc(-c2cc3c(s2)C(C)(C)N(CCN2CCOCC2)C3=O)n1 (10 µM)
0: all assays above

Cc1ccc(Nc2cc(-c3cccc(N4C(=O)c5ccccc5C4=O)c3)ncn2)cc1NS(C)(=O)=O (10 µM)
1: CDK3
0: all other assays above

Additional records.

C[C@@H]1O[C@@H](O[C@H]2[C@H](Oc3cc(O)c4c(=O)cc(-c5ccc(O)cc5)oc4c3)O[C@H](CO)[C@@H](O)[C@@H]2O)[C@H](O)[C@H](O)[C@H]1O [Rhoifolin] (10 µM)
0: all assays above

CCn1c(=O)c(-c2ccc(-c3cncs3)cc2Cl)cc2cnc(Nc3ccc(N4CCN(C)CC4)cc3)nc21 (2.5 µM)
0: all assays above

Nc1cc(Nc2ccc(S(N)(=O)=O)cc2)ncn1 (10 µM)
0: all assays above

CC(C)CC1(O)CCN(C(=O)c2ccc(NS(=O)(=O)c3cccc4nccnc34)cc2)CC1 (10 µM)
0: all assays above

COCCOc1ccc(-c2cn(-c3ccccc3)c3nc[nH]c(=O)c23)cc1 (10 µM)
0: all assays above

C[C@@H](c1ccc2nccn2c1)n1nnc2ncc(-c3cnn(C)c3)nc21 [Savolitinib] (10 µM)
0: all assays above

CNC(=O)Nc1ccc(-c2cc(-c3ccnc(Nc4ccc(C)c(S(=O)(=O)N(C)C)c4)n3)ccn2)cc1 [hSMG-1 inhibitor 11e] (2.5 µM)
1: CHEK2
0: all other assays above

CC(=O)N1CCN(c2cc(-c3cc(C(F)(F)F)c4c(N)ncnn34)ccc2C#N)C(=O)C1(C)C (10 µM)
0: all assays above

O=[N+]([O-])c1cc(C(F)(F)F)cc([N+](=O)[O-])c1NNC(=S)Nc1ccc(F)cc1 (10 µM)
0: all assays above

COc1cc(S(C)(=O)=O)ccc1Nc1nc2ccc(-c3ccc(NC(=O)[C@H](C)c4ccc(F)cc4)cc3)cn2n1 [Empesertib] (10 µM)
0: all assays above

Nc1ncnc2c1c(-c1ccc(Oc3ccccc3)cc1)nn2C1CCNCC1 [N-piperidine Ibrutinib (hydrochloride)] (10 µM)
0: all assays above
